Some of the results follow.
How the values were obtained:
Test in all cases: log2 fold change, soluble protein after heating vs DMSO (PISA); higher = thermal stabilisation; K562 lysate, 10 uM; active = over 0.2 and 3.5 SD of the protein, either way, in both replicates (recomputed)
alvocidib = compound: CN1CC[C@H](c2c(O)cc(O)c3c(=O)cc(-c4ccccc4Cl)oc23)[C@H](O)C1 [alvocidib]
How it was run: (§1)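 The values are log-two fold changes in thermal stability compared with solvent controls and come from duplicates. They were obtained by TMTpro 16plex LC-MS/MS, with channel sums equalised, on the supernatant after 21,000xg for 90 min. That supernatant came from crude K562 extract at 1 mg/mL protein treated with 10 μM compound for 30 min, heated for 3 min across 48°C-58°C, pooled and brought to 0.5% NP-40 at 4°C.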

Sequences of proteins named here, by UniProt entry; tags and fusion partners are left off. A change or cut given only in a name is not applied to a line headed by its entry.
UniProt P10301: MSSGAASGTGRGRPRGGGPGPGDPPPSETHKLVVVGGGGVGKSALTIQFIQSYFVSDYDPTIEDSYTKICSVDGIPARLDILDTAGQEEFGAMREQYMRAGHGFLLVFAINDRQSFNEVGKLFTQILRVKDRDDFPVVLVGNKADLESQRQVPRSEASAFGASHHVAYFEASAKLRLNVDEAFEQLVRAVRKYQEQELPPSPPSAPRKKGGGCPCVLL
UniProt P29034: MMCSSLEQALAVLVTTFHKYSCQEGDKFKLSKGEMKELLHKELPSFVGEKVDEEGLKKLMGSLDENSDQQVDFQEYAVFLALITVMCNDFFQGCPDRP
UniProt Q9HA92: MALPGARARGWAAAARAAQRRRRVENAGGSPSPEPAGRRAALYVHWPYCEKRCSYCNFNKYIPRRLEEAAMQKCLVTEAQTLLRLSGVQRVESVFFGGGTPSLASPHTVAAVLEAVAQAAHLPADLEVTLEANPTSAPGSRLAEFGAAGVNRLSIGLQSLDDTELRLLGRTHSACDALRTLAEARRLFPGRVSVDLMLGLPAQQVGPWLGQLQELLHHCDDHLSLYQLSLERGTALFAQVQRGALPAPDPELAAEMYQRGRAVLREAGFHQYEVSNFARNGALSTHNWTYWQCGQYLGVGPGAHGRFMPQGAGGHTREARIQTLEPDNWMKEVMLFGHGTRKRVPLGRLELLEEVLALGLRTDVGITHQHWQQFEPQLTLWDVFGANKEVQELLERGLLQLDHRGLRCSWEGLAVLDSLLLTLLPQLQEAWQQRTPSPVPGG
UniProt Q5VZM2, whole entry, looked up: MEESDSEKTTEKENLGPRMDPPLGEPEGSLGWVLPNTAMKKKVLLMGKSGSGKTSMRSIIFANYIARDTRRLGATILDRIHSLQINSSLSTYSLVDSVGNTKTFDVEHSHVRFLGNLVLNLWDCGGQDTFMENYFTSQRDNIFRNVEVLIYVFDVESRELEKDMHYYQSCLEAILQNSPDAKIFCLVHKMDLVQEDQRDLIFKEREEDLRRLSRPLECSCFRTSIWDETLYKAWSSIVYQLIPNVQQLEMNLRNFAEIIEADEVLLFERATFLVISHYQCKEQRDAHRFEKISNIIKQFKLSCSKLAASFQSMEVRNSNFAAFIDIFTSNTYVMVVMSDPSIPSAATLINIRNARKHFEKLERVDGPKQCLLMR
UniProt Q96CM3: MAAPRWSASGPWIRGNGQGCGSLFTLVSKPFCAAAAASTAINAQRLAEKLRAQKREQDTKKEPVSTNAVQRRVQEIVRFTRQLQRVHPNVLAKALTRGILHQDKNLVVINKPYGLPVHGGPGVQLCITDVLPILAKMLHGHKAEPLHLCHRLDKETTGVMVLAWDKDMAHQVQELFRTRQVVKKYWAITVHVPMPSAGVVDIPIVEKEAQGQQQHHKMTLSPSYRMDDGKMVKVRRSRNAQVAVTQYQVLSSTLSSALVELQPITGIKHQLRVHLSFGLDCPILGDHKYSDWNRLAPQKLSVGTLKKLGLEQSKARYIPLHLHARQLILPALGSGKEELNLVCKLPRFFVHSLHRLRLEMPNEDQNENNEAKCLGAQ
UniProt O75582, whole entry, looked up: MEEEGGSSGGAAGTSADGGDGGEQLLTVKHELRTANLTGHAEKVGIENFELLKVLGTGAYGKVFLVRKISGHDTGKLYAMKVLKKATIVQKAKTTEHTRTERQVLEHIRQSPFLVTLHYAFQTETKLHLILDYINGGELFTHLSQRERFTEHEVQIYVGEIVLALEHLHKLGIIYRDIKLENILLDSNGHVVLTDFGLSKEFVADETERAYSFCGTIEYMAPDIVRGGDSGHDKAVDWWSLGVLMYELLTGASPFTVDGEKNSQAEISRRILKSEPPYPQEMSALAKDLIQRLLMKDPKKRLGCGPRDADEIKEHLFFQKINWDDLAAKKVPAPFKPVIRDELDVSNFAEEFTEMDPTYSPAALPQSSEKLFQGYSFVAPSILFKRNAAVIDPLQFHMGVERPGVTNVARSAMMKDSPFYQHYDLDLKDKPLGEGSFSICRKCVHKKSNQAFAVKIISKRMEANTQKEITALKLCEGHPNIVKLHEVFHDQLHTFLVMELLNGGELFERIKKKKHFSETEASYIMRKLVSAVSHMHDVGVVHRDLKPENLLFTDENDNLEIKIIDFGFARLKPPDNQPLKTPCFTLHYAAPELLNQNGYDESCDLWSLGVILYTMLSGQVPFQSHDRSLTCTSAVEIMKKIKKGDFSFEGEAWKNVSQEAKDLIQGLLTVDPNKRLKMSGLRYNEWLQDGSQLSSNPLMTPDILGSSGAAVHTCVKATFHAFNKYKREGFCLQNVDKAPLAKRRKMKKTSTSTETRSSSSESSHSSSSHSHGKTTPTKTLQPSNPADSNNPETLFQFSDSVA
UniProt Q8N2Y8: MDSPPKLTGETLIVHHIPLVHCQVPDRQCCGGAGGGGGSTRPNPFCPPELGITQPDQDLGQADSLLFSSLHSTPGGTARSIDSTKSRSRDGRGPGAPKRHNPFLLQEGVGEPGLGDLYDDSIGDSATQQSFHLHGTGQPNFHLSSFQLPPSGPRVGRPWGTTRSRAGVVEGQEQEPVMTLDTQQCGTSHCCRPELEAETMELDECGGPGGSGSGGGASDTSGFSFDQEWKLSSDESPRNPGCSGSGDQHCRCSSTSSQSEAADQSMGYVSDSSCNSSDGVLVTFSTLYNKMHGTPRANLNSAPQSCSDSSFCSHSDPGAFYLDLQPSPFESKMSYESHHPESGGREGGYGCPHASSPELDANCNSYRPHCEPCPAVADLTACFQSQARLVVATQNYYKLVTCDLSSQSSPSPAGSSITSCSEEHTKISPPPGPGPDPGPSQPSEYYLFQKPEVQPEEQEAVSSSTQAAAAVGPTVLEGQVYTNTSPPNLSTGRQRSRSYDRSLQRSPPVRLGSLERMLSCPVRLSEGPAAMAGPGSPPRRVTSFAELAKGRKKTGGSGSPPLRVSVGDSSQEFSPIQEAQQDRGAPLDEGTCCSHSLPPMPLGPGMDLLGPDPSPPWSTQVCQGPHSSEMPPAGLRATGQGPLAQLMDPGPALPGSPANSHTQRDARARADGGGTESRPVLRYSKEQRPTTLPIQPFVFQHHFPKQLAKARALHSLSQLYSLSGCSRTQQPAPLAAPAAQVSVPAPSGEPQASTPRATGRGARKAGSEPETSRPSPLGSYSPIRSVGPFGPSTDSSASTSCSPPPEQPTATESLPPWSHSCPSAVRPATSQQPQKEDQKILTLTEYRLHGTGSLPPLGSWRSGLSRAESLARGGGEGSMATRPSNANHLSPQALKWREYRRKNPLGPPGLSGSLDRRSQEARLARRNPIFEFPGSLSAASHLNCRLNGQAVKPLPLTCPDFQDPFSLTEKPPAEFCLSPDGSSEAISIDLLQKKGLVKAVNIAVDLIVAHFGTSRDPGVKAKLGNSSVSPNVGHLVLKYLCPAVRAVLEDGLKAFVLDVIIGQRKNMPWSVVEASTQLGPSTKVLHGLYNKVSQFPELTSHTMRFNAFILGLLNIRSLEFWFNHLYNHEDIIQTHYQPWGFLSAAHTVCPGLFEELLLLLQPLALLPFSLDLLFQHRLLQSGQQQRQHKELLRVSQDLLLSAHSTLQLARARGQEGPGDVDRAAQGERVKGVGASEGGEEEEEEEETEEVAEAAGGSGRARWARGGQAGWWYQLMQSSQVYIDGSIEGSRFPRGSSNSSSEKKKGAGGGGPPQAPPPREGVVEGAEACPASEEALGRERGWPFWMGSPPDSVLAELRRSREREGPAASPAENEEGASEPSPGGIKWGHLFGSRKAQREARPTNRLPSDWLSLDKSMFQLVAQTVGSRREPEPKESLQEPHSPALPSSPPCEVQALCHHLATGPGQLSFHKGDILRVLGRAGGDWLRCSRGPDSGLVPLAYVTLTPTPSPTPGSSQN
UniProt P23297: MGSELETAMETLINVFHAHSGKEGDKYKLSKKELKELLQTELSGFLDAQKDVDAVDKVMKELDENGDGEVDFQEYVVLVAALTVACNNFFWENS

Tubastatin A = compound: CN1CCc2c(c3ccccc3n2Cc2ccc(C(=O)NO)cc2)C1 [Tubastatin A]
How it was run: as §1

[1] = compound: CNC(=O)C1=CC=CC=C1NC2=NC(=NC=C2Cl)NC3=C(C=C(C=C3)N4CCOCC4)OC
How it was run: as §1

defactinib = compound: CNC(=O)c1ccc(Nc2ncc(C(F)(F)F)c(NCc3nccnc3N(C)S(C)(=O)=O)n2)cc1 [defactinib]
How it was run: as §1

[2] = compound: CNc1nc(-c2ccc3c(N)n[nH]c3c2)cc(N2C[C@@H](C(=O)NC3CCCCC3)CC[C@H]2C)n1
How it was run: as §1

encorafenib = compound: COC(=O)N[C@@H](C)CNc1nccc(-c2cn(C(C)C)nc2-c2cc(Cl)cc(NS(C)(=O)=O)c2F)n1 [encorafenib]
How it was run: as §1

[3] = compound: COC(=O)[C@H](CCSC)NC(=O)C1=C(C=C(C=C1)NC[C@H](CS)N)C2=CC=CC=C2
How it was run: as §1

alisertib = compound: COc1cc(Nc2ncc3c(n2)-c2ccc(Cl)cc2C(c2c(F)cccc2OC)=NC3)ccc1C(=O)O [alisertib]
How it was run: as §1

[4] = compound: COc1cc2nc(-c3cc(F)ccc3O)nc(N[C@@H]3CNC[C@H]3C(C)(C)O)c2cc1OC
How it was run: as §1

gefitinib = compound: COc1cc2ncnc(Nc3ccc(F)c(Cl)c3)c2cc1OCCCN1CCOCC1 [gefitinib]
How it was run: as §1

lapatinib = compound: CS(=O)(=O)CCNCc1ccc(-c2ccc3ncnc(Nc4ccc(OCc5cccc(F)c5)c(Cl)c4)c3c2)o1 [lapatinib]
How it was run: as §1

pictilisib = compound: CS(=O)(=O)N1CCN(Cc2cc3nc(-c4cccc5[nH]ncc45)nc(N4CCOCC4)c3s2)CC1 [pictilisib]
How it was run: as §1

crizotinib = compound: C[C@@H](Oc1cc(-c2cnn(C3CCNCC3)c2)cnc1N)c1c(Cl)ccc(F)c1Cl [crizotinib]
How it was run: as §1

[5] = compound: C[C@H](C1=CC=C(C=C1)C(=O)NC2=C3C=CNC3=NC=C2)N
How it was run: as §1

duvelisib = compound: C[C@H](Nc1ncnc2nc[nH]c12)c1cc2cccc(Cl)c2c(=O)n1-c1ccccc1 [duvelisib]
How it was run: as §1

gandotinib = compound: Cc1cc(Nc2cc(CN3CCOCC3)c3nc(C)c(Cc4ccc(Cl)cc4F)n3n2)n[nH]1 [gandotinib]
How it was run: as §1

tozasertib = compound: Cc1cc(Nc2cc(N3CCN(C)CC3)nc(Sc3ccc(NC(=O)C4CC4)cc3)n2)n[nH]1 [tozasertib]
How it was run: as §1

doramapimod = compound: Cc1ccc(-n2nc(C(C)(C)C)cc2NC(=O)Nc2ccc(OCCN3CCOCC3)c3ccccc23)cc1 [doramapimod]
How it was run: as §1

bafetinib = compound: Cc1ccc(NC(=O)c2ccc(CN3CC[C@H](N(C)C)C3)c(C(F)(F)F)c2)cc1Nc1nccc(-c2cncnc2)n1 [bafetinib]
How it was run: as §1

[6] = compound: Cc1cccc(CC(=O)N2CCc3c2ccc(-c2cn(C)c4ncnc(N)c24)c3F)n1
How it was run: as §1

Measured: log2 fold change

RRAS (UniProt P10301)
inactive: alvocidib -0.006 | Tubastatin A 0.031 | [1] 0.015 | defactinib -0.009 | [2] -0.065 | encorafenib -0.017 | [3] 0.024 | alisertib 0.004 | [4] 0.033 | gefitinib 0.003 | lapatinib -0.078 | pictilisib -0.01 | crizotinib 0.011 | [5] -0.07 | duvelisib -0.022 | gandotinib -0.032 | tozasertib 0.013 | doramapimod 0.027 | bafetinib -0.028 | [6] -0.01

RPL5 (UniProt P46777)
inactive: alvocidib 0.04 | Tubastatin A 0.025 | [1] -0.01 | defactinib 0.009 | [2] -0.005 | encorafenib 0.006 | [3] -0.017 | alisertib -0.005 | [4] -0.017 | gefitinib -0.045 | lapatinib 0.018 | pictilisib 0.042 | crizotinib 0.002 | [5] 0.033 | duvelisib 0.021 | gandotinib -0.044 | tozasertib -0.002 | doramapimod -0.004 | bafetinib -0.001 | [6] -0.038

S100A2 (UniProt P29034)
inactive: alvocidib -0.197 | Tubastatin A -0.005 | [1] -0.087 | defactinib -0.064 | encorafenib 0.049 | [3] 0.047 | alisertib 0.024 | [4] 0.147 | gefitinib 0.091 | lapatinib -0.105 | pictilisib -0.008 | crizotinib -0.533 | [5] -0.374 | gandotinib 1.59 | tozasertib -0.001 | doramapimod 0.094 | bafetinib -0.152 | [6] 0.463

RSAD1 (UniProt Q9HA92)
inactive: alvocidib -0.146 | Tubastatin A 0.027 | [1] 0.001 | defactinib 0.043 | [2] 0.701 | encorafenib -0.19 | [3] 0.146 | [4] 0.178 | lapatinib -0.161 | pictilisib -0.112 | crizotinib -0.137 | [5] -0.388 | duvelisib -0.08 | gandotinib 0.484 | tozasertib -0.207 | doramapimod 0.03 | bafetinib -0.118 | [6] 0.221

RRAGB (UniProt Q5VZM2)
inactive: alvocidib -0.038 | Tubastatin A 0.006 | [1] 0.009 | defactinib 0.024 | [2] -0.018 | encorafenib 0.028 | [3] -0.058 | alisertib -0.007 | [4] 0.006 | gefitinib -0.044 | lapatinib 0.03 | pictilisib -0.009 | crizotinib 0.004 | [5] -0.097 | duvelisib 0.01 | gandotinib 0.05 | tozasertib -0.017 | doramapimod -0.036 | bafetinib -0.013 | [6] 0.042

RPS16 (UniProt P62249)
inactive: alvocidib 0.035 | Tubastatin A -0.169 | [1] -0.032 | defactinib 0.012 | [2] -0.014 | encorafenib 0.004 | [3] 0.032 | alisertib 0.027 | [4] -0.013 | gefitinib -0.018 | lapatinib 0.001 | pictilisib 0.016 | crizotinib 0.029 | [5] 0.14 | duvelisib 0.022 | gandotinib -0.084 | tozasertib 0.041 | doramapimod -0.005 | bafetinib 0.041 | [6] -0.071

RPUSD4 (UniProt Q96CM3)
inactive: alvocidib -0.006 | Tubastatin A 0.068 | [1] -0.022 | defactinib -0.139 | [2] 0.015 | alisertib 0.016 | gefitinib 0.086 | pictilisib -0.091 | crizotinib -0.007 | [5] -0.061 | duvelisib -0.073 | gandotinib 0.023 | doramapimod 0.02 | bafetinib -0.096 | [6] 0.083

RPS6KA5 (UniProt O75582)
inactive: alvocidib 0.193 | Tubastatin A -0.239 | [1] 0.009 | defactinib 0.019 | [2] 0.072 | encorafenib 0.054 | [3] -0.005 | alisertib 0.041 | [4] 0.104 | gefitinib 0.11 | lapatinib -0.024 | crizotinib 0.028 | [5] 0.13 | duvelisib -0.011 | gandotinib -0.23 | tozasertib 0.106 | doramapimod -0.043 | [6] -0.032

RUSC2 (UniProt Q8N2Y8)
inactive: alvocidib -0.011 | Tubastatin A -0.016 | [1] 0.031 | defactinib 0.044 | [2] -0.009 | alisertib -0.149 | gefitinib -0.269 | pictilisib -0.026 | [5] 0.194 | duvelisib 0.04 | gandotinib -0.11 | bafetinib -0.064 | [6] -0.042

S100A1 (UniProt P23297)
inactive: alvocidib 0.083 | Tubastatin A 0.046 | [1] 0.018 | defactinib 0.008 | [2] 0.022 | encorafenib -0.016 | [3] -0.101 | alisertib -0.124 | [4] 0.02 | gefitinib 0.092 | lapatinib -0.022 | crizotinib -0.027 | [5] 0.002 | duvelisib -0.196 | gandotinib -0.017 | tozasertib 0.038 | doramapimod 0.174 | [6] 0.013

RPS10 (UniProt P46783)
inactive: alvocidib 0.01 | Tubastatin A 0.009 | [1] -0.032 | defactinib -0.006 | [2] -0.007 | encorafenib -0.008 | [3] 0.047 | alisertib -0.022 | [4] -0.008 | gefitinib -0.039 | lapatinib -0.016 | pictilisib 0.019 | crizotinib 0.014 | [5] 0.034 | duvelisib 0.019 | gandotinib -0.044 | tozasertib 0.004 | doramapimod -0.018 | bafetinib 0.038 | [6] -0.025
